Measured values taken from PubChem BioAssay (Tox21).
Values joined by “and” are separate entries in the source; they are usually repeats but may differ in a detail not shown here. Equal entries are not always repeated. Only results without a clear call are listed here; the source files them as inconclusive. Unless noted, calls follow the shape of the dose curve; as a rule, active = well fitted curve in the direction sought with a large enough effect in the repeat runs; inconclusive = weak or mixed curves; inactive = no such curve, though single readings can be large; an effect the other way counts as inactive or inconclusive.

Protein sequences, listed by entry. Tags and fused reporters are not part of them.
UniProt Q92731, whole entry: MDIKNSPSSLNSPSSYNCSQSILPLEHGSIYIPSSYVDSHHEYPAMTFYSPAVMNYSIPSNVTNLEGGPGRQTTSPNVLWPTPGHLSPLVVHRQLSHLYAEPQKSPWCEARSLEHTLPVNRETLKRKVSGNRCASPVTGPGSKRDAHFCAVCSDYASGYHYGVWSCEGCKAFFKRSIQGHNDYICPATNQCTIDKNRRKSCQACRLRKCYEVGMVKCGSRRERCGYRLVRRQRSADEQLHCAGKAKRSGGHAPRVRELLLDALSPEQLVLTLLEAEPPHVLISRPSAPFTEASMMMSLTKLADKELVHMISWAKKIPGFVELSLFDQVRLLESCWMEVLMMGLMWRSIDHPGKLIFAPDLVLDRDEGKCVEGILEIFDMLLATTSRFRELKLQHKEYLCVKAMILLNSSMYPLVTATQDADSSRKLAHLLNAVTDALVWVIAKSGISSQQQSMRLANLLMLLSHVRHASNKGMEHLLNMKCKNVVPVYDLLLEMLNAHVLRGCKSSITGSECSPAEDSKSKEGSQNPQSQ
UniProt O75469, whole entry: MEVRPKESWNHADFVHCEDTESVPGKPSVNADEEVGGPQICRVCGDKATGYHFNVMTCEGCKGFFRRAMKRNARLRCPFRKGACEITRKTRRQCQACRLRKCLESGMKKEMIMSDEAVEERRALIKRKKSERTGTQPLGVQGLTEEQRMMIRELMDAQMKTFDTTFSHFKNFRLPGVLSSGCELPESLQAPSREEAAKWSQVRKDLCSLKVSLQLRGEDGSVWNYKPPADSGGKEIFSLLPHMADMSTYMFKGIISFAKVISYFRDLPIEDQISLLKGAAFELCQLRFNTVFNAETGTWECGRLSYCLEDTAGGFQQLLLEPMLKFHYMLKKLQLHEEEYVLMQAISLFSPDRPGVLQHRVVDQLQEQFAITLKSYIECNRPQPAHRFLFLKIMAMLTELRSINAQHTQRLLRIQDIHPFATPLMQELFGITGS
UniProt Q03181, whole entry: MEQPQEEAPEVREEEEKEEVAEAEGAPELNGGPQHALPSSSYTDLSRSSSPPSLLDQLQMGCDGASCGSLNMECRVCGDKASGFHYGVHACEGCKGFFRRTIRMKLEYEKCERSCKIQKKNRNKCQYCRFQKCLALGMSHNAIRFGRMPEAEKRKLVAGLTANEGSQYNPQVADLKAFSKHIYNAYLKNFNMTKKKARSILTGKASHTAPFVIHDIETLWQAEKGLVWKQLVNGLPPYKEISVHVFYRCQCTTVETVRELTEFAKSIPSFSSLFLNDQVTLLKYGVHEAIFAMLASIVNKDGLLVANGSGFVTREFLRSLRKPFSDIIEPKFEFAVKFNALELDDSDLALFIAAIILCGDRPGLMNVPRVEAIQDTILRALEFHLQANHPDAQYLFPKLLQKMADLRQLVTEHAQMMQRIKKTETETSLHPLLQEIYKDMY
UniProt P19793, whole entry: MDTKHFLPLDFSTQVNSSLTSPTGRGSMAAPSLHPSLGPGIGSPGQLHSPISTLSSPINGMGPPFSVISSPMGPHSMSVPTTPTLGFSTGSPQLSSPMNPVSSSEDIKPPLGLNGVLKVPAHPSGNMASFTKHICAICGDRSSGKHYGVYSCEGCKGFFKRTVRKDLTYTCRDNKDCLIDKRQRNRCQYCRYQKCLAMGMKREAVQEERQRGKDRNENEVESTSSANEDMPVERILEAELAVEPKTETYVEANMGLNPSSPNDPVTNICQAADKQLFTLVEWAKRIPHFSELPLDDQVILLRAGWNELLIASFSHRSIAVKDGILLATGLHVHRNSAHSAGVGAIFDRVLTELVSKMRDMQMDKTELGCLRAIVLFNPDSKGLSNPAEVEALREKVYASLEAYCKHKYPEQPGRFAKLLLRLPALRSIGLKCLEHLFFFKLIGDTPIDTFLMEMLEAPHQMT
UniProt P06401, whole entry: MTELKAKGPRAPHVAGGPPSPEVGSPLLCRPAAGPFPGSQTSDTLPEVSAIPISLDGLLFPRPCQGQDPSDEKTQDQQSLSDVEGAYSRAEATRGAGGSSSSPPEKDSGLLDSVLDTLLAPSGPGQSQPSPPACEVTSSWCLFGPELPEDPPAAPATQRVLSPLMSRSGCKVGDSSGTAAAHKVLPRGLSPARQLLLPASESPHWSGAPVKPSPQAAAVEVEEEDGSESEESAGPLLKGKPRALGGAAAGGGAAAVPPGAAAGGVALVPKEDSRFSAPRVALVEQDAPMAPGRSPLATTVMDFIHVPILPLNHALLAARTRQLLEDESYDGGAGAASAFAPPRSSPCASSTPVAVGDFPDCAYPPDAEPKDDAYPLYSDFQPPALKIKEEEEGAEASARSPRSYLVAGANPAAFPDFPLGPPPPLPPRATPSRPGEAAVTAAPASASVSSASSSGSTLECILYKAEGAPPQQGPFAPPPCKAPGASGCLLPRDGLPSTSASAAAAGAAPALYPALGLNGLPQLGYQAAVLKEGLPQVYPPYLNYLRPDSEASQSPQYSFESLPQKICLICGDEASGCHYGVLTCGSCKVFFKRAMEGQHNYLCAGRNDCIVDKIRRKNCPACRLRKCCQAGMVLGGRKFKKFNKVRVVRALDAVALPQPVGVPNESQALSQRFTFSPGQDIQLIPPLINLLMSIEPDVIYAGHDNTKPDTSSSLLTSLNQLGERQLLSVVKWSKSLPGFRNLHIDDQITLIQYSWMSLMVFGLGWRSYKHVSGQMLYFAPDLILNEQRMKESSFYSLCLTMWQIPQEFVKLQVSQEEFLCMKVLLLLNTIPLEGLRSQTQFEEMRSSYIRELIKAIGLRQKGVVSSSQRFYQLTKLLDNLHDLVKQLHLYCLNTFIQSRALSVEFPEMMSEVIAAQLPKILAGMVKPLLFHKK

How the values were obtained:
[1] = qHTS assay for small molecule agonists of the antioxidant response element (ARE) signaling pathway (AID 743202; active = well fitted activation curve with a large enough effect in the signal ratio in the repeat runs, not every such curve was filed as active; inconclusive = weak or mixed curves, or effect the other way; inactive = no such curve, though single readings can be large or run the other way; the % refers to the signal ratio; also: % is scaled to controls: 0 for no effect and ±100 for the full control effect); settings: HepG2 ARE-bla reporter, beta-lactamase FRET, 16 h; activation: at 73.3 µM (top of the series)
Summary of the method: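 Quantitative high-throughput format in HepG2 cells bearing an integrated ARE-beta-lactamase reporter. Compound exposure lasted 16 h at 37 C, and fluorescence was read 2 h after adding LiveBLAzer B/G substrate at room temperature.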

[2] = qHTS assay for small molecule agonists of the antioxidant response element (ARE) signaling pathway - cell viability counter screen (AID 743203; calls by dose curve; also: % is scaled to controls: 0 for no effect and ±100 for the full control effect; nearly all actives have a fitted effect of over 55% in size); settings: ARE-bla HepG2 viability, CellTiter-Glo luminescence, 16 h; viability change, negative = cytotoxic: at 73.3 µM (top of the series)
Summary of the method: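 Following 16 hrs of compound treatment at 37C, HepG2 cells with an ARE-controlled beta-lactamase gene were lysed with CellTiter-Glo. Luminescence was read after 30 min at room temperature.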

[3] = qHTS assay to identify small molecule agonists of the vitamin D receptor (VDR) signaling pathway - cell viability counter screen (AID 743224); settings: VDR-bla HEK293T viability, CellTiter-Glo luminescence, 16 h; also: potency is read from the fitted curve at half-maximal effect; nearly all actives have a fitted effect of over 50% in size
Summary of the method: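 Plated VDR-bla cells (4 h, 37C) received compound, incubated 16 h, then LiveBLAzer substrate 2 h RT; CellTiter-Glo added afterwards, luminescence read at 30 min.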

[4] = qHTS assay to identify small molecule agonists of the endoplasmic reticulum stress response signaling pathway (AID 1159516; active = well fitted activation curve with a large enough effect in the signal ratio in the repeat runs, not every such curve was filed as active; inconclusive = weak or mixed curves, or effect the other way; the % refers to the signal ratio; also: potency is read from the fitted curve at half-maximal effect); settings: ESRE-bla HeLa, ER stress beta-lactamase reporter, 5 h; activation: at 61 µM (top of the series)
Summary of the method: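 An ESRE-bla HeLa cell assay: compounds were pin-transferred from DMSO onto overnight-plated cells and left 5 hr at 37 C. Substrate was then loaded for 2 hr at room temperature before reading fluorescence at 460 nm and 530 nm.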

[5] = qHTS assay to identify small molecule agonists of the endoplasmic reticulum stress response signaling pathway - cell viability counter screen (AID 1159517; calls by dose curve; also: potency is read from the fitted curve at half-maximal effect; nearly all actives have a fitted effect of over 50% in size); settings: ESRE-bla HeLa viability, CellTiter-Glo luminescence, 5 h
Summary of the method: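 HeLa cells carrying an ESRE-driven beta-lactamase reporter receive compound for 5 hr at 37 C. Cell viability is then gauged with CellTiter-Glo by luminescence, 30 min at room temperature.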

[6] = A CellTox Green Cytotoxicity Assay to monitor cytotoxicity in HepG2 cells - 16 hour (AID 1224876); settings: CellTox Green fluorescence; also: potency is read from the fitted curve at half-maximal effect; nearly all actives have a fitted effect of over 45% in size
Summary of the method: (§1)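 Using 1536-well format, dye-containing HepG2 suspension was seeded, allowed 5 h at 37 C/5% CO2, dosed by pintool with compounds, positive and negative controls, and imaged for fluorescence across 40 h.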

[7] = A CellTox Green Cytotoxicity Assay to monitor cytotoxicity in HepG2 cells - 24 hour (AID 1224878); settings: CellTox Green fluorescence; also: potency is read from the fitted curve at half-maximal effect; nearly all actives have a fitted effect of over 45% in size
Summary of the method: as §1

[8] = A CellTox Green Cytotoxicity Assay to monitor cytotoxicity in HepG2 cells - 40 hour (AID 1224879); settings: CellTox Green fluorescence; also: potency is read from the fitted curve at half-maximal effect; nearly all actives have a fitted effect of over 40% in size
Summary of the method: as §1

[9] = A CellTox Green Cytotoxicity Assay to monitor cytotoxicity in HepG2 cells - 32 hour (AID 1224883); settings: CellTox Green fluorescence; also: potency is read from the fitted curve at half-maximal effect; nearly all actives have a fitted effect of over 50% in size
Summary of the method: as §1

[10] = target: Estrogen receptor beta (Homo sapiens) (UniProt Q92731); test: qHTS assay to identify small molecule agonists of the estrogen receptor beta (ER-beta) signaling pathway (AID 1259377; active = well fitted activation curve with a large enough effect in the signal ratio in the repeat runs, not every such curve was filed as active; inconclusive = weak or mixed curves, or effect the other way; the % refers to the signal ratio; also: % is scaled to controls: 0 for no effect and ±100 for the full control effect); settings: ER-beta-UAS-bla HEK293T, beta-lactamase FRET ratio, 16 h; activation: at 92.4 µM (top of the series)
[11] = target: Estrogen receptor beta (Homo sapiens) (UniProt Q92731); test: qHTS assay to identify small molecule antagonists of the estrogen receptor beta (ER-beta) signaling pathway (AID 1259378; active = well fitted inhibition curve with a large enough effect in the signal ratio in the repeat runs, not every such curve was filed as active; inconclusive = weak or mixed curves, or effect the other way; inactive = no such curve, though single readings can be large or run the other way; the % refers to the signal ratio; also: % is scaled to controls: 0 for no effect and ±100 for the full control effect); settings: ER-beta-UAS-bla HEK293T, beta-lactamase FRET ratio, 16 h; activity, negative = inhibition: at 92.4 µM (top of the series) unless noted
Summary of the method: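 Antagonist mode: compounds added to beta-lactamase reporter HEK293T ER-beta-UAS cells stimulated with E2 (1nM final), 16 hr at 37C. LiveBLAzer B/G FRET substrate, 2 hours room temperature, fluorescence read-out.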

[12] = Caspase-3/7 induction in HepG2 cells by small molecules, qHTS cell viability counter screen (AID 1346981); settings: CellTiter-Fluor fluorescence, 17 h; also: potency is read from the fitted curve at half-maximal effect; nearly all actives have a fitted effect of over 30% in size
Summary of the method: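 Viability determined by CellTiter-Fluor fluorescence in HepG2 wells also used for the luminescent Caspase-Glo 3/7 read. Compounds were present for 16 hr at 37 C, 5% CO2 before reagent addition.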

[13] = target: Nuclear receptor subfamily 1 group I member 2 (Homo sapiens) (UniProt O75469); test: Human pregnane X receptor (PXR) small molecule agonists, qHTS assay (AID 1346982); settings: PXR-Luc HepG2, CYP3A4 luciferase reporter, 24 h; also: potency is read from the fitted curve at half-maximal effect; nearly all actives have a fitted effect of over 35% in size
Summary of the method: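 Compound-induced hPXR transactivation of a CYP3A4 luciferase reporter was scored in HepG2 PXR-Luc cells over 24 hr at 37 C, 5% CO2, by luminescence.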

[14] = qHTS assay to identify small molecule that activate the aryl hydrocarbon receptor (AhR) signaling pathway - cell viability counter screen (AID 743086); settings: HepG2-AhR-luc viability, CellTiter-Fluor, 24 h; also: potency is read from the fitted curve at half-maximal effect; nearly all actives have a fitted effect of over 45% in size
Summary of the method: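 Cytotoxicity counter screen: CellTiter-Fluor signal (30 min, 37 C) in 4000 HepG2 cells/well carrying the DRE-luciferase reporter, following 24 h compound exposure at 37 C.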

[15] = target: Peroxisome proliferator-activated receptor delta (Homo sapiens) (UniProt Q03181); test: qHTS assay to identify small molecule agonists of the peroxisome proliferator-activated receptor delta (PPARd) signaling pathway (AID 743212; calls by dose curve;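 also: HEK293H cells with PPARd UAS beta-lactamase reporter GeneBLAzer system; potency is read from the fitted curve at half-maximal effect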); settings: HEK293H PPARd-UAS-bla, beta-lactamase FRET ratio, 17 h; activation: at 62.6 µM (top of the series)
Summary of the method: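 HEK293H PPARd-bla cells; 5 h preincubation 37 C/5% CO2; compound (DMSO) 37 C; LiveBLAzer B/G FRET substrate 2 h RT; fluorescence intensity.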

[16] = qHTS assay to identify small molecule antagonists of the peroxisome proliferator-activated receptor delta (PPARd) signaling pathway - cell viability counter screen (AID 743213); settings: PPARd-bla HEK293H viability, CellTiter-Glo luminescence, 17 h; viability change, negative = cytotoxic: at 62 µM (top of the series); also: potency is read from the fitted curve at half-maximal effect; nearly all actives have a fitted effect of over 50% in size
Summary of the method: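 PPARd-bla HEK293H cells (3000/well) got compound plus 300 nM L165041 agonist for 17 h at 37 C. Viability in the same wells came from CellTiter-Glo luminescence after 30 min at room temperature.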

[17] = qHTS assay to identify small molecule agonists of the NFkB signaling pathway - cell viability counter screen (AID 1159515; calls by dose curve; also: potency is read from the fitted curve at half-maximal effect; nearly all actives have a fitted effect of over 55% in size); settings: NFkB-bla ME-180 viability, CellTiter-Glo luminescence, 5 h
Summary of the method: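 Using the same wells as the NFkB reporter read, ME-180 NFkB-bla cells given compounds for 5 hr were assessed for viability via CellTiter-Glo, with luminescence taken after a 30 min room-temperature incubation.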

[18] = target: Retinoic acid receptor RXR-alpha (Homo sapiens) (UniProt P19793); test: qHTS assay to identify small molecule agonists of the RXR signaling pathway (AID 1159527; calls by dose curve; also: potency is read from the fitted curve at half-maximal effect; nearly all actives have a fitted effect of over 35% in size); settings: HEK293T RXRa-UAS-bla, beta-lactamase ratio, 16 h; activation: at 76.8 µM (top of the series) unless noted
Summary of the method: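 Compounds in DMSO were added to RXR-alpha-UAS-bla HEK 293T cells kept in 2% charcoal-stripped serum, and incubated 16 hr at 37 C with 5% CO2. Reporter signal came from a 2 hr B/G FRET substrate step.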

[19] = A CellTox Green Cytotoxicity Assay to monitor cytotoxicity in HepG2 cells - 0 hour (AID 1224882); settings: CellTox Green fluorescence; also: potency is read from the fitted curve at half-maximal effect; nearly all actives have a fitted effect of over 35% in size
Summary of the method: as §1

[20] = qHTS assay to identify small molecule agonists of the estrogen receptor beta (ER-beta) signaling pathway - cell viability counter screen (AID 1259380); settings: ER-beta-bla HEK293T viability, CellTiter-Glo luminescence, 16 h; also: potency is read from the fitted curve at half-maximal effect; nearly all actives have a fitted effect of over 30% in size
Summary of the method: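 CellTiter-Glo read, 30 min RT, same wells as bla assay; cells ER-beta-UAS-bla HEK293T; 16 hr compound, 37C; medium 2% charcoal-stripped FBS.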

[21] = target: Progesterone receptor (Homo sapiens) (UniProt P06401); test: qHTS assay to identify small molecule antagonists of the progesterone receptor (PR) signaling pathway (AID 1346795; active = well fitted inhibition curve with a large enough effect in the signal ratio in the repeat runs, not every such curve was filed as active; inconclusive = weak or mixed curves; the % refers to the signal ratio; also: potency is read from the fitted curve at half-maximal effect; as to activity change, negative = inhibition: % is scaled to controls: 0 for no effect and ±100 for the full control effect); settings: PR-UAS-bla HEK293T, beta-lactamase FRET ratio, 16 h; activity change, negative = inhibition: at 92.4 µM (top of the series) unless noted
Summary of the method: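 Fluorescence intensity measured 2 hr after adding beta-lactamase FRET substrate to PR-UAS-bla HEK293T cells that had been co-treated 16 hr with compound and 1 nM R5020 (final concentration) in 2% charcoal-stripped FBS.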

[NH4+].[O-][Cl+3]([O-])([O-])[O-]
inconclusive: activation [1] -15.6% | viability change, negative = cytotoxic [2] -32.3% | Potency [3] 3.47 µM | Potency [4] 61.6 µM | Potency [5] 12.4 µM and 30.9 µM | Potency [6] 21.9 µM | Potency [7] 21.9 µM | Potency [8] 21.9 µM | Potency [9] 21.9 µM | activation [10] 11% | activity, negative = inhibition [11] 25.9% | Potency [12] 24.3 µM | Potency [13] 61.8 µM

OCCSCCO
inconclusive: Potency [14] 0.0237 µM | Potency [15] 11.9 µM | Potency [16] 0.177 µM | Potency [17] 44.4 µM | Potency [18] 28 µM | Potency [7] 7.56 µM | Potency [19] 1.9 µM | Potency [20] 29.8 µM | Potency [21] 16.8 µM | activity change, negative = inhibition [21] -40.8%
